Assay results reported in US20230181748A1, “MEANS AND METHODS FOR THE TREATMENT OF PATHOLOGICAL AGGREGATION” (priority 2020, published 2023).
These are yes or no findings as the source states them, for the method shown. Some results given as binding are weak or reduced against the parent protein; the word gives no strength. One block for each binder: values may come before it.

Amino acid sequences for entries named in this document (tags omitted). A change or cut given only in a name is not applied to a line headed by its entry.
UniProt P10636: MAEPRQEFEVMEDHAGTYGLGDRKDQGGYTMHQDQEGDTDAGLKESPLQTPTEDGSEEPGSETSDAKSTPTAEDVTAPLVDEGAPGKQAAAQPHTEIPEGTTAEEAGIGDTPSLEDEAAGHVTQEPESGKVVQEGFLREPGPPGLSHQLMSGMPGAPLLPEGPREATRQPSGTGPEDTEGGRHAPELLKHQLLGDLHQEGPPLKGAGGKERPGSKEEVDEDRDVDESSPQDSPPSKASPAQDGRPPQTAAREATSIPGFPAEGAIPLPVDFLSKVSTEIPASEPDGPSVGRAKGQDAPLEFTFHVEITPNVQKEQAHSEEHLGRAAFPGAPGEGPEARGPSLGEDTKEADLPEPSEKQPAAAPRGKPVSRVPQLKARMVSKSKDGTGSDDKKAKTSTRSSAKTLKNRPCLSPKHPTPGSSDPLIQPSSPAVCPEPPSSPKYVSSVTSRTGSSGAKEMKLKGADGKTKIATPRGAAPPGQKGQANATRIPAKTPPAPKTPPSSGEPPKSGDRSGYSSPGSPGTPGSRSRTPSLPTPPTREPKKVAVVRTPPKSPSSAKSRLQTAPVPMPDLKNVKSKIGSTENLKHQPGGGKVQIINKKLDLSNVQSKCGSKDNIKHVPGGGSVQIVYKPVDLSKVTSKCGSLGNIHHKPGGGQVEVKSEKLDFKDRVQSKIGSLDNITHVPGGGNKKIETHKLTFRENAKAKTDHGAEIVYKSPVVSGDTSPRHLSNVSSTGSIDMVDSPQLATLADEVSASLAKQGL

Biological target: atto-633-labeled preformed tau aggregates (UniProt P10636)
Experiment: Microscale Thermophoresis (MST), atto-633-labeled preformed tau aggregates with a concentration range of peptide

binding: binds
B1: HET (peptide)
peptide: WQIVYKGSVWMINK

binding: binds
B2: HET_JAV (peptide)
peptide: WQIVYKGSVWMINKGSGSNLLRLTGW
